Measurements as given in article PMC10825207.
Results are given in words; binding and its absence hold for the method and conditions named. Binding seen in cells or lysates may run through a third protein. Some binding calls cover weakened binding; strength is not graded here. Blank lines part the entries; values can stand above or below the substance they belong to.

Protein sequences, listed by entry. Tags and fused reporters are not part of them.
UniProt P06748: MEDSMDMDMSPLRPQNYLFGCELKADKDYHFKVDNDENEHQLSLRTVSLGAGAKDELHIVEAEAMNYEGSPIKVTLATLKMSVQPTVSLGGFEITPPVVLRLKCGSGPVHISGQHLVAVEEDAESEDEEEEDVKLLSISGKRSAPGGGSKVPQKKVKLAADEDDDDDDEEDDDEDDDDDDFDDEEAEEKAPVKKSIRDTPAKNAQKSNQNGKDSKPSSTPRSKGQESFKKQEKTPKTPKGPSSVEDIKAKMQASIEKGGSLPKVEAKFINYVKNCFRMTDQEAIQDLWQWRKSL
UniProt P46937: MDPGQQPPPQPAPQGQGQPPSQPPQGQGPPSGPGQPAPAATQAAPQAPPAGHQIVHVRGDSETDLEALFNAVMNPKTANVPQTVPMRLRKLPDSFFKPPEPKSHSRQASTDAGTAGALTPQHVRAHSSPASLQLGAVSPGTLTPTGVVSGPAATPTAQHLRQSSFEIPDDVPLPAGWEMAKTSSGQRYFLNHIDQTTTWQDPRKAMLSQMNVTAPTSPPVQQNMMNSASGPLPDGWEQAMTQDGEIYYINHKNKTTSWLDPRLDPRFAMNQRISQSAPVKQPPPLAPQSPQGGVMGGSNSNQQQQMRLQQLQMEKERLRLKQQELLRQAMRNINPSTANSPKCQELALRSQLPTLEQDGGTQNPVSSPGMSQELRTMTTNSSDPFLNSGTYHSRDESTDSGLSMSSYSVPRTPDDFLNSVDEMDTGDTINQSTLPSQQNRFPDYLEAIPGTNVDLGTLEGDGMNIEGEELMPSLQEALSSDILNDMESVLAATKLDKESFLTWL

Experiments:
NPM1 WT (in 293T cells) = NPM1 WT (in 293T cells) (UniProt P06748); experiment: co-IP; CoIP of YAP1 and NPM1 (WT, Thr95D or Thr95A) from lysates of 293T cells
[1] = target: nucleophosmin1 (NPM1) (human (endogenous in A673 and other ES cell lines)) (UniProt P06748); experiment: co-IP; endogenous proteins in ES cell lysates (50 mM Tris-HCl pH 7.4, 150 mM NaCl, 1 mM EDTA, 1% NP-40, 1 mM DTT); 1 mg lysate with AURKA/NPM1 antibodies overnight at 4 °C, beads, Western blot; IgG as negative control
[2] = target: T1, Aurora kinase A (AURKA) (human (endogenous in A673 and other ES cell lines)) (UniProt O14965); experiment: as above
T1 sequence: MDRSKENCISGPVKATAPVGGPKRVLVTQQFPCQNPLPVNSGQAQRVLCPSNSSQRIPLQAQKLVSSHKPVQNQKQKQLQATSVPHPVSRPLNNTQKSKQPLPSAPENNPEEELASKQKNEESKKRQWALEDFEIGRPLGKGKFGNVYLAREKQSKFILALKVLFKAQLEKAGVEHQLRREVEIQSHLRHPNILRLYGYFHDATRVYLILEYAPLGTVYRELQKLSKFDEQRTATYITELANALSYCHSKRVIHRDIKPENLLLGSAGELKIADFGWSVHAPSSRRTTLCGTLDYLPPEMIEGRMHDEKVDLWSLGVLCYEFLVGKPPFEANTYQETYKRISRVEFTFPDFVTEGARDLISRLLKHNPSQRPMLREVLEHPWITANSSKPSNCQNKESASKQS

binding (NPM1 WT (in 293T cells)): binds
Substance: YAP1 (in 293T cells) (from UniProt P46937 1-504)

binding [1]: binds
Substance: Yes1 associated transcriptional regulator (YAP1) (from UniProt P46937 1-504)

binding [2]: binds
Substance: nucleophosmin1 (NPM1) (from UniProt P06748 1-294)
